According to article doi:10.1101/2023.06.01.543131:
Results are given in words; binding and its absence hold for the method and conditions named. In cells and extracts the contact can be indirect.

By UniProt entry, the sequences of proteins in these tests, tags left out.
UniProt P60484: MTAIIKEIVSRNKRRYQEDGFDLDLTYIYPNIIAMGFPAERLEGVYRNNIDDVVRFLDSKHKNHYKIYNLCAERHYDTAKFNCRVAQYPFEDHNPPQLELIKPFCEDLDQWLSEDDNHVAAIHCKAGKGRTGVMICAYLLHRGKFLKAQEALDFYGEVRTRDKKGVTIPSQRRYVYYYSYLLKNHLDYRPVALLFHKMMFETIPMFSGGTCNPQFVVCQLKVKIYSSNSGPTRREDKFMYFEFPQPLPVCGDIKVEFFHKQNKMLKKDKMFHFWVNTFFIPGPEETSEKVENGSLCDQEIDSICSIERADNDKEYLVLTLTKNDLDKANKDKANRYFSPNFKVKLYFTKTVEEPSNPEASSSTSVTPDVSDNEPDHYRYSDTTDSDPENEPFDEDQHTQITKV

Target: PTEN (human (endogenous in A375)) (UniProt P60484)
Test: co-IP

binding: no binding
B1: FRA1 (protein, UniProt P15407 1-271)
chain: MFRDFGEPGPSSGNGGGYGGPAQPPAAAQAAQQKFHLVPSINTMSGSQELQWMVQPHFLGPSSYPRPLTYPQYSPPQPRPGVIRALGPPPGVRRRPCEQISPEEEERRRVRRERNKLAAAKCRNRRKELTDFLQAETDKLEDEKSGLQREIEELQKQKERLELVLEAHRPICKIPEGAKEGDTGSTSGTSSPPAPCRPVPCISLSPGPVLEPEALHTPTLMTTPSLTPFTPSLVFTYPSTPEPCASAHRKSSSSSGDPSSDPLGSPTLLAL
